Data source: PubChem BioAssay AID1259424 (University of Nebraska Medical Center, 2018)
Aim: 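Find knockdowns that reproduce the expression shifts seen after KSR1 loss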 (primary screen). Cells: human HCT116 colon cancer cells. Reagent: siRNA pool against human genes, 50 nM. Detection: 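Log2 levels of six mRNAs (branched-DNA multiplex), adjusted by two reference genes and the non-targeting median, then scored against the average KSR1 knockdown pattern as Pearson r and euclidean distance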. Scale: mean correlation with KSR1 profile: higher = expression change more like KSR1 knockdown.
In all, the deposit lists about 14,000 reagents; below is an unselected part. 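Higher correlation or smaller distance means closer resemblance to KSR1 loss; control wells, including KSR1 knockdowns, recur on many plates.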 A reagent listed more than once was tested more than once; the source does not tell the runs apart. Not all columns of the deposit are shown. Not given: the time to read-out.

RAB8B [SID364000174]: mean correlation with KSR1 profile = -0.397
SAMSN1 [SID364002362]: mean correlation with KSR1 profile = -0.365
INPP5B [SID363996440]: mean correlation with KSR1 profile = -0.559
ZKSCAN5 [SID363998941]: mean correlation with KSR1 profile = -0.564
CDC42BPB [SID363996886]: mean correlation with KSR1 profile = 0.854
UFSP2 [SID364001003]: mean correlation with KSR1 profile = 0.122
DUSP3 [SID363995100]: mean correlation with KSR1 profile = 0.159
NNT [SID363998253]: mean correlation with KSR1 profile = -0.319
LILRA6 [SID364002791]: mean correlation with KSR1 profile = -0.366
GP1BA [SID363991509]: mean correlation with KSR1 profile = 0.133
ANXA2 [SID363995049]: mean correlation with KSR1 profile = -0.113
CAPN7 [SID363998728]: mean correlation with KSR1 profile = -0.602

A stretch from the list above, as a working copy:
RAB8B [SID364000174]: mean correlation with KSR1 profile = -0.397
SAMSN1 [SID364002362]: mean correlation with KSR1 profile = -0.365
INPP5B [SID363996440]: mean correlation with KSR1 profile = -0.559

More entries follow.
LBR [SID363993494]: mean correlation with KSR1 profile = -0.113
RNFT1 [SID363999893]: mean correlation with KSR1 profile = -0.353
PEG3 [SID363997035]: mean correlation with KSR1 profile = -0.295
ADH6 [SID363991971]: mean correlation with KSR1 profile = 0.165
VAMP2 [SID363998671]: mean correlation with KSR1 profile = 0.168
ZDHHC5 [SID364005334]: mean correlation with KSR1 profile = 0.57
LYN [SID363993534]: mean correlation with KSR1 profile = -0.0479
ARHGEF40 [SID364005414]: mean correlation with KSR1 profile = -0.265
SSX2 [SID363994287]: mean correlation with KSR1 profile = -0.122
TFDP1 [SID363997827]: mean correlation with KSR1 profile = 0.515
TRIM44 [SID364000377]: mean correlation with KSR1 profile = -0.135
TSHZ3 [SID364001868]: mean correlation with KSR1 profile = -0.485
HBG1 [SID363991881]: mean correlation with KSR1 profile = 0.47
GRM8 [SID363992132]: mean correlation with KSR1 profile = 0.0259
CNOT2 [SID363998917]: mean correlation with KSR1 profile = 0.0841
AADAT [SID363999964]: mean correlation with KSR1 profile = -0.467
NCKIPSD [SID364000116]: mean correlation with KSR1 profile = 0.0135
NCKIPSD [SID364000116]: mean correlation with KSR1 profile = -0.19
XAGE1B [SID364001675]: mean correlation with KSR1 profile = 0.155
UGP2 [SID363997530]: mean correlation with KSR1 profile = -0.367
MTX1 [SID363993632]: mean correlation with KSR1 profile = -0.581
DSC1 [SID363995890]: mean correlation with KSR1 profile = 0.576
UCKL1 [SID364000590]: mean correlation with KSR1 profile = -0.278
IDH1 [SID363996765]: mean correlation with KSR1 profile = 0.201
